This is an account of results in doi:10.1101/2024.06.25.600532.

No constants are given. Whether binding was seen depends on the method and setting. In cells and extracts the contact can be indirect. Here binding means that the protein was enriched with, or labelled near, the bait; the list need not be complete.

In this test the target is Flag-tagged LYAR (UniProt Q9NX58). The experiment in a line: affinity purification with mass spectrometry.

Regarding MEP50 (from UniProt Q9BQA1 1-342), the binding entry was “binds”.

B1: Fibrillarin (FBL) (protein, UniProt P22087 1-321)
chain: MKPGFSPRGGGFGGRGGFGDRGGRGGRGGFGGGRGRGGGFRGRGRGGGGGGGGGGGGGRGGGGFHSGGNRGRGRGGKRGNQSGKNVMVEPHRHEGVFICRGKEDALVTKNLVPGESVYGEKRVSISEGDDKIEYRAWNPFRSKLAAAILGGVDQIHIKPGAKVLYLGAASGTTVSHVSDIVGPDGLVYAVEFSHRSGRDLINLAKKRTNIIPVIEDARHPHKYRMLIAMVDVIFADVAQPDQTRIVALNAHTFLRNGGHFVISIKANCIDSTASAEAVFASEVKKMQQENMKPQEQLTLEPYERDHAVVVGVYRPPPKVKN
B1: the binding result was “binds”.
